Test results reported in the supplement of paper PMC9578143, “Small-Molecule Ebselen Binds to YTHDF Proteins Interfering with the Recognition of N^6-Methyladenosine-Modified RNAs” (ACS Pharmacology & Translational Science, 2022).
The other results are listed elsewhere or left out. Plates or batches differ in their baseline, so values are only roughly comparable.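 Hits were defined as a z-score below −3.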 Positions of bridges follow the written chain, without caps; N, C: chain ends. Non-standard residues stand in square brackets, D forms with d. Residues, ends and D or L forms follow the SMILES beside them. *: point of attachment. Ileψ(thiazoline)Cys = CC[C@H](C)[C@H](N)C1=N[C@H](C(=O)*)CS1; dOrn = NCCC[C@@H](N)C(=O)O

target: T1, YTHDF1 YTH domain (aa 365-554) (UniProt Q9BYJ9); assay: tryptophan fluorescence intensity z-score (mean); higher = higher fluorescence, less quenching (negative = binding / quenching); conditions: 10 µM
T1 sequence (whole entry): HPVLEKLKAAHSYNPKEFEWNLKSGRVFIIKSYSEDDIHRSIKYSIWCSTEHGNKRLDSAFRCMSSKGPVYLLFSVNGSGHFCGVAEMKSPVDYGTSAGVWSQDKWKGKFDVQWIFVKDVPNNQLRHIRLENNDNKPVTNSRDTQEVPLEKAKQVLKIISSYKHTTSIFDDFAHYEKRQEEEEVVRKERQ

| Structure (SMILES) | tryptophan fluorescence intensity z-score |
| --- | --- |
| CC(CCc1ccccc1)NCC(O)c1ccc(O)c(C(N)=O)c1 (centres undefined) (plate: M 7-8) | inactive: -0.387 |
| COc1ccc(C(Cl)=C(c2ccc(OC)cc2)c2ccc(OC)cc2)cc1 (plate: M 1-2) | inactive: -0.219 |
| CCCCCCc1ccc(O)cc1O.Nc1c2ccccc2nc2ccccc12 (plate: M 9-10) | inactive: -0.393 |
| COC(=O)Nc1nc2cc(C(=O)c3ccccc3)ccc2[nH]1 (plate: M 7-8) | inactive: 0.02 |
| CCCCCCCCCc1ccc(OCCOCCOCCOCCOCCOCCOCCOCCOCCO)cc1 (plate: M 9-10) | inactive: -1.22 |
| NC(=O)c1cc[n+](CC2=C(C(=O)O)N3C(=O)[C@@H](NC(=O)[C@@H](c4ccccc4)S(=O)(=O)[O-])[C@H]3SC2)cc1 (plate: M 7-8) | inactive: -0.00991 |
| CC1(C)S[C@@H]2[C@H](NC(=O)[C@H](NC(=O)N3CCNC3=O)c3ccccc3)C(=O)N2[C@H]1C(=O)O (plate: M 7-8) | inactive: 0.0133 |
| COc1c(-c2coc3cc4c(cc3c2=O)CC(OC(C)=O)C(C)(C)O4)ccc2c1C=CC(C)(C)O2 (centres undefined) (plate: M 21-22) | inactive: 0.117 |
| CC1(C)CC[C@]2(C)CC[C@]3(C)C(=CC[C@@H]4[C@@]5(C)CC[C@H](O)C(C)(C)[C@@H]5CC[C@]43C)[C@@H]2C1 [beta-AMYRIN] (plate: M 13-14) | inactive: 0.612 |
| CN(C(=O)C(Cl)Cl)c1ccc(OC(=O)c2ccco2)cc1 (plate: M 11-12) | inactive: -0.0875 |
| Oc1cc(O)c2c(c1)O[C@H](c1cc(O)c(O)c(O)c1)[C@H](O)C2 (plate: M 15-16) | inactive: 0.416 |
| Oc1c(I)cc(Cl)c2cccnc12 (plate: M 9-10) | inactive: -0.873 |
| C[C@H]1[C@H](C)CC[C@]2(CO)CC[C@]3(C)C(=CC[C@@H]4[C@@]5(C)CC[C@H](O)C(C)(C)[C@@H]5CC[C@]43C)[C@H]12 (plate: M 19-20) | inactive: 0.169 |
| C=CC(C1=CC(=O)C(OC)=CC1=O)c1ccc(OC)cc1 (centres undefined) (plate: M 15-16) | inactive: -0.116 |
| COc1ccc(-c2cc(=O)c3cc(OC)ccc3o2)cc1 (plate: M 17-18) | inactive: -0.0532 |
| CN(C)CCOC(C)(c1ccccc1)c1ccccn1 (centres undefined) (plate: M 3-4) | inactive: -0.12 |
| CC(=O)c1ccc2c(c1)N(CCCN(C)C)c1ccccc1S2 (plate: M 11-12) | inactive: -0.872 |
| O=c1cc(-c2ccc(O)cc2)oc2ccc(O)cc12 (plate: M 17-18) | inactive: 0.297 |
| CC(=O)NS(=O)(=O)c1ccc(NC(=O)c2ccccc2C(=O)O)cc1 (plate: M 11-12) | inactive: 0.379 |
| O=C(CCc1ccc(O)cc1)c1c(O)cc(O)cc1O (plate: M 17-18) | inactive: -0.4 |

| Structure (SMILES) | tryptophan fluorescence intensity z-score |
| --- | --- |
| CC[C@H](C)[C@H](N)C1=N[C@H](C(=O)N[C@@H](CC(C)C)C(=O)N[C@H](CCC(=O)O)C(=O)N[C@H](C(=O)N[C@H]2CCCCNC(=O)[C@H](CC(N)=O)NC(=O)[C@@H](CC(=O)O)NC(=O)[C@H](Cc3cnc[nH]3)NC(=O)[C@@H](Cc3ccccc3)NC(=O)[C@H]([C@@H](C)CC)NC(=O)[C@@H](CCCN)NC2=O)[C@@H](C)CC)CS1 (plate: M 1-2) ({Ileψ(thiazoline)Cys}-L[dE]IK[dOrn]I[dF]H[dD]N; lactam 4-C) | inactive: -0.81 |
| CC(=O)C1=C(O)C=C2Oc3c(C(C)=O)c(O)c(C)c(O)c3[C@]2(C)C1=O (plate: M 17-18) | inactive: 0.406 |
| COC(=O)C[C@H]1C(C)(C)C2(O)OC34CC2C(=O)[C@]1(C)C3CC[C@]1(C)C4=CC(=O)O[C@H]1c1ccoc1 (stereo partly drawn) [8beta-HYDROXYCARAPIN,3,8-HEMIACETAL] (plate: M 13-14) | inactive: -0.127 |
| CNC[C@H](O)c1ccc(O)c(O)c1 (plate: M 3-4) | inactive: 0.606 |
| C=CC(C)(O)CCC1C(=C)CC(OC(C)=O)C2C(C)(C)CCCC12C (centres undefined) (plate: M 17-18) | inactive: -0.112 |
| CN1CCN(CCCN2c3ccccc3Sc3ccc(C(F)(F)F)cc32)CC1 (plate: M 5-6) | inactive: -0.199 |
| COc1ccc(OC)c(C(O)CNC(=O)CN)c1 (centres undefined) (plate: M 9-10) | inactive: 0.402 |
| C=C1c2c(Cl)ccc(O)c2C(=O)C2=C(O)[C@]3(O)C(=O)C(C(N)=O)=C(O)[C@@H](N(C)C)[C@@H]3[C@@H](O)[C@H]12.O=C(O)c1cc(S(=O)(=O)O)ccc1O (plate: M 7-8) | inactive: -0.233 |
| COc1ccc2c(c1OC)C(=O)O[C@@H]2[C@H]1c2c(cc3c(c2OC)OCO3)CCN1C (plate: M 3-4) | inactive: 0.172 |
| CC(=O)NCCCS(=O)(=O)O (plate: M 11-12) | inactive: 0.233 |
| O=C1C=C(O)C(=O)c2ccccc21 (plate: M 19-20) | inactive: 0.531 |
| O=C(C1CCCCC1)N1CC(=O)N2CCc3ccccc3C2C1 (centres undefined) (plate: M 5-6) | inactive: 0.333 |
| COc1ccc(-c2cc(=O)c3c(O)c(OC)c(O[C@@H]4O[C@H](CO[C@@H]5O[C@@H](C)[C@H](O)[C@@H](O)[C@H]5O)[C@@H](O)[C@H](O)[C@H]4O)cc3o2)cc1 (plate: M 15-16) | inactive: -0.774 |
| Cn1c(=O)[nH]c(=O)c2[nH]cnc21 (plate: M 23-24) | inactive: 0.218 |
| COc1ccc2c(c1)c(CC(=O)O)c(C)n2C(=O)c1ccc(Cl)cc1 (plate: M 3-4) | inactive: 0.18 |
| Nc1nc2ccc(OC(F)(F)F)cc2s1 (plate: M 11-12) | inactive: -0.124 |
| O=C(O)[C@@H](O)[C@H](O)[C@H](O)[C@@H](O)C(=O)O (plate: M 21-22) | inactive: 0.432 |
| OC[C@H]1O[C@H](O[C@]2(CCl)O[C@H](CCl)[C@@H](O)[C@@H]2O)[C@H](O)[C@@H](O)[C@H]1Cl (plate: M 11-12) | inactive: -0.453 |
| O=C(OCC(O)CO)c1ccccc1Nc1ccnc2cc(Cl)ccc12 (centres undefined) (plate: M 23-24) | inactive: 0.0566 |
| Cc1cc(O)c2c(c1)C(=O)c1cccc(O)c1C2=O (plate: M 21-22) | inactive: 0.204 |

| Structure (SMILES) | tryptophan fluorescence intensity z-score |
| --- | --- |
| CC(C(=O)O)c1ccc(-c2ccccc2)c(F)c1 (centres undefined) (plate: M 3-4) | inactive: -0.0795 |
| CC(=O)OC1CCC2(C)C(=CCC3C2CCC2(C)C(C(C)CCCC(C)C)CCC32)C1 (centres undefined) (plate: M 21-22) | inactive: 0.537 |
| O=c1ccc2cc(O)c(O)cc2o1 (plate: M 21-22) | inactive: 0.116 |
| C[C@H](CCC(=O)O)[C@H]1CC[C@H]2[C@@H]3[C@H](O)C[C@@H]4C[C@H](O)CC[C@]4(C)[C@H]3C[C@H](O)[C@]12C (plate: M 17-18) | inactive: 0.406 |
| C[C@H]1O[C@@H](O[C@H]2[C@@H](O)C[C@H](O[C@H]3[C@@H](O)C[C@H](O[C@H]4CC[C@@]5(C)[C@H](CC[C@@H]6[C@@H]5C[C@@H](O)[C@]5(C)[C@@H](C7=CC(=O)OC7)CC[C@]65O)C4)O[C@@H]3C)O[C@@H]2C)C[C@H](O)[C@@H]1O (plate: M 1-2) | inactive: -0.336 |
| O=C1c2c(O)cccc2C([C@@H]2O[C@H](CO)[C@@H](O)[C@H](O)[C@H]2O)c2cc(CO)cc(O)c21 (some centres undefined) (plate: M 21-22) | inactive: -0.186 |
| CC(C(=O)O)c1ccc2c(c1)[nH]c1ccc(Cl)cc12 (centres undefined) (plate: M 7-8) | inactive: 0.102 |
| C/C1=C2/[N-][C@H]([C@H](CC(N)=O)[C@@]2(C)CCC(=O)NC[C@@H](C)OP(=O)([O-])O[C@H]2[C@@H](O)[C@@H](n3cnc4cc(C)c(C)cc43)O[C@@H]2CO)[C@]2(C)N=C(/C(C)=C3N=C(/C=C4N=C1[C@@H](CCC(N)=O)C\4(C)C)[C@@H](CCC(N)=O)[C@]\3(C)CC(N)=O)[C@@H](CCC(N)=O)[C@]2(C)CC(N)=O.[CH2-][C@H]1O[C@H](n2cnc3c(N)ncnc32)[C@@H](O)[C@H]1O.[Co+3] (plate: M 5-6) | inactive: -0.181 |
| CN(C)C(=O)C(CCN1CCC(O)(c2ccc(Cl)cc2)CC1)(c1ccccc1)c1ccccc1 (plate: M 13-14) | inactive: 0.015 |
| Nc1nc2[nH]cnc2c(=S)[nH]1 (plate: M 5-6) | inactive: -0.397 |
| CC(=O)N1CCCC1C(=O)O (centres undefined) (plate: M 23-24) | inactive: 0.405 |
| Oc1ccc(/C=C/c2cc(O)cc(O)c2)cc1 (plate: M 19-20) | inactive: -0.221 |
| CCCCCCCCCCCCCCC(C(=O)O)C(O)(CC(=O)OC)C(=O)O (centres undefined) (plate: M 15-16) | inactive: 0.547 |
| Cc1c(N(C)C)c(=O)n(-c2ccccc2)n1C (plate: M 5-6) | inactive: 0.0592 |
| Oc1c(Cl)cc(Cl)c(Cl)c1Cc1c(O)c(Cl)cc(Cl)c1Cl (plate: M 3-4) | inactive: -0.655 |
| Cc1cc(=O)[nH]c(=S)[nH]1 (plate: M 3-4) | inactive: 0.202 |
| COc1cc(C)c2c(c1C=O)Oc1c(c(C)c(O)c3c1C(O)OC3=O)OC2=O (centres undefined) (plate: M 17-18) | inactive: 0.19 |
| CC[C@]1(O)C[C@H]2CN(CCc3c([nH]c4ccccc34)[C@@](C(=O)OC)(c3cc4c(cc3OC)N(C=O)[C@H]3[C@@](O)(C(=O)OC)[C@H](OC(C)=O)[C@]5(CC)C=CCN6CC[C@]43[C@@H]65)C2)C1 (plate: M 11-12) | inactive: -0.708 |
| COc1ccccc1OCC(O)CO (centres undefined) (plate: M 3-4) | inactive: -0.575 |

Part of the list above, with tabs.
Structure (SMILES)	tryptophan fluorescence intensity z-score
C[C@H](CCC(=O)O)[C@H]1CC[C@H]2[C@@H]3[C@H](O)C[C@@H]4C[C@H](O)CC[C@]4(C)[C@H]3C[C@H](O)[C@]12C (plate: M 17-18)	inactive: 0.406
C[C@H]1O[C@@H](O[C@H]2[C@@H](O)C[C@H](O[C@H]3[C@@H](O)C[C@H](O[C@H]4CC[C@@]5(C)[C@H](CC[C@@H]6[C@@H]5C[C@@H](O)[C@]5(C)[C@@H](C7=CC(=O)OC7)CC[C@]65O)C4)O[C@@H]3C)O[C@@H]2C)C[C@H](O)[C@@H]1O (plate: M 1-2)	inactive: -0.336
O=C1c2c(O)cccc2C([C@@H]2O[C@H](CO)[C@@H](O)[C@H](O)[C@H]2O)c2cc(CO)cc(O)c21 (some centres undefined) (plate: M 21-22)	inactive: -0.186
